Data as given in PubChem BioAssay AID504808 (Drosophila RNAi Screening Center, 2011).
The deposit covers about 21,000 reagents; this is an unselected part of those with a known target gene and a result. Of all reagents, 18 (0.084%) are marked active. 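Raw counts without plate normalisation, one of two replicates; the ratio scores behind the calls were not deposited.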 The numbers tell different reagents against one gene apart. Names joined by + are all predicted targets of the reagent. Not given: the amount of reagent, the time to read-out.

Purpose: 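Genes whose loss lifts activity of an E2F-responsive reporter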 (primary screen)
Cells: Drosophila S2 cells
Knock-down reagent: long dsRNA against Drosophila genes
Detection: 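Dual luciferase plate measurements; E2F-specific signal taken as firefly over Renilla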
Reading the numbers: E2F firefly: higher = more E2F reporter activity; Renilla normaliser: higher = more normaliser reporter signal
Active means: 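a knock-down counted as active when the firefly/Renilla E2F signal rose above 50%, a threshold chosen arbitrarily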

no.	Gene	dsRNA no.	E2F firefly, rep 1	Renilla normaliser, rep 1	call
1	Kots (GeneID 41702)	1	77581	3666	inactive
2	CG17562 (GeneID 42021)	1	1.05e5	5598	inactive
3	IleRS-m (GeneID 39762)	1	1.49e5	7447	inactive
4	COX6AL2 + Ir75d	1	1.26e5	5287	inactive
5	ACXE (GeneID 53426)	1	93149	4208	inactive
6	oaf (GeneID 33435)	1	1.44e5	5352	inactive
7	Rpp30 (GeneID 44392)	1	95686	3784	inactive
8	CG7848 (GeneID 36839)	1	1.39e5	5032	inactive
9	Mco3 (GeneID 43134)	1	1.22e5	6572	inactive
10	mbm + CG11555	1	1.68e5	6156	inactive
11	CG7889 (GeneID 32916)	1	1.72e5	5420	inactive
12	CG42671 (GeneID 39268)	1	50895	3311	inactive
13	CG42671 (GeneID 39268)	2	1.11e5	5565	inactive
14	Set1 (GeneID 3354971)	1	1.15e5	5523	inactive
15	Set1 (GeneID 3354971)	2	1.20e5	4927	inactive
16	CG15629 (GeneID 33679)	1	1.45e5	4512	inactive
17	CG3008 (GeneID 33693)	1	1.45e5	5083	inactive
18	CG42699 (GeneID 31507)	1	7868	736	inactive
19	CG42699 (GeneID 31507)	2	1.19e5	5319	inactive
20	CG13315 (GeneID 50300)	1	1.02e5	4229	inactive
21	eIF2A (GeneID 40431)	1	73258	3445	inactive
22	CG15278 (GeneID 34865)	1	99943	4721	inactive
23	Fim (GeneID 32721)	1	1.61e5	6030	inactive
24	CG3376 (GeneID 37884)	1	80345	3309	inactive
25	Cp36 (GeneID 31787)	1	45441	4018	inactive

Next part (5 carried over from the part before).
no.	Gene	dsRNA no.	E2F firefly, rep 1	Renilla normaliser, rep 1	call
21	eIF2A (GeneID 40431)	1	73258	3445	inactive
22	CG15278 (GeneID 34865)	1	99943	4721	inactive
23	Fim (GeneID 32721)	1	1.61e5	6030	inactive
24	CG3376 (GeneID 37884)	1	80345	3309	inactive
25	Cp36 (GeneID 31787)	1	45441	4018	inactive
26	CG4301 (GeneID 32610)	1	1.59e5	7009	inactive
27	lncRNA:CR40629 (GeneID 10178881)	1	89388	2636	inactive
28	TfIIEbeta (GeneID 38527)	1	92465	4269	inactive
29	cv-c (GeneID 41749)	1	1.10e5	5778	inactive
30	cv-c (GeneID 41749)	2	1.18e5	6222	inactive
31	cv-c (GeneID 41749)	3	70692	5303	inactive
32	cv-c (GeneID 41749)	4	1.17e5	6073	inactive
33	cv-c (GeneID 41749)	5	91099	4649	inactive
34	cv-c (GeneID 41749)	6	1.04e5	6428	inactive
35	CG33998 (GeneID 3885594)	1	1.61e5	5244	inactive
36	resilin (GeneID 36880)	1	1.69e5	5529	inactive
37	resilin (GeneID 36880)	2	1.63e5	5407	inactive
38	CG9135 (GeneID 33850)	1	82234	3759	inactive
39	Ahcy (GeneID 32471)	1	7678	840	inactive
40	Notum (GeneID 39751)	1	1.65e5	9621	inactive
41	Nt5c (GeneID 35984)	1	2963	212	inactive
42	Smyd5 (GeneID 42517)	1	98521	5068	inactive
43	prg (GeneID 34177)	1	1.42e5	4803	inactive
44	Fatp2 (GeneID 37657)	1	1.29e5	5274	inactive
45	Fatp2 (GeneID 37657)	2	98778	4597	inactive
46	Fatp2 (GeneID 37657)	3	97944	4134	inactive
47	mthl1 (GeneID 32637)	1	2.45e5	7637	inactive
48	CG30103 (GeneID 36969)	1	1.41e5	4959	inactive
49	toe (GeneID 39418)	1	1.44e5	5024	inactive
50	toe (GeneID 39418)	2	99209	4387	inactive
51	Pmm2 (GeneID 39436)	1	1.38e5	7587	inactive
52	CG42591 (GeneID 8674006)	1	1.29e5	4442	inactive
53	Osi23 (GeneID 43615)	1	1.27e5	6676	inactive
54	CG31431 (GeneID 326138)	1	1.52e5	7878	inactive
55	mle (GeneID 35523)	1	1.13e5	4655	inactive
56	CG34012 (GeneID 3885632)	1	1.24e5	4549	inactive
57	Ir94e (GeneID 42765)	1	1.09e5	6087	inactive
